Structures can show the parent of a compound that is named as a salt. For at least one compound, name, drawing or mass did not settle the structure.
System: male ICR mice
Assay: Effect on a neuropathic pain (L5 spinal nerve cut, von Frey 50% pain threshold)
Type: in vivo
Details: allodynia-developed mice, dose of 10 mg/kg or less, single oral administration
Protocol: Test Example 4: Effect on a Neuropathic Pain
Five-week old male ICR mice were used for the test. The skin and muscles were incised to expose the sixth lumbar vertebra under isoflurane anesthesia, and the right transverse process was removed. The L5 spinal nerve was isolated from the surrounding tissue to cut out, and then the incision site was sutured.
The 50% pain threshold of the plantar surface was determined by referring to the method of Chaplan S R et al. (J Neurosci Methods 1994, 53: 55-63) using von Frey filaments (0.008 g, 0.02 g, 0.04 g, 0.07 g, 0.16 g, 0.4 g and 0.6 g). First, the mice were placed in a measurement case with a lattice scaffold and habituatedd until the animal settled; 0.07 g of filament was pressed against the plantar surface for about 3 seconds. If withdrawal behavior was observed, the filament with the stimulation intensity one level lower was used to apply stimulation, and conversely, if the withdrawal behavior was not detected, the filament with the stimulation intensity one level higher was used to apply stimulation. By repeating this operation, starting from 2 times before and after the presence or absence of escape behavior changed, the results for a total of 6 times were recorded, to calculate a 50% pain threshold using the following calculation formula. 50% pain threshold (g)=(10^[Xf+κδ]/10000) […]

O=C(N[C@H]1COc2ccc(Cl)cc2C1)c1cn2c(n1)CCC(C(F)(F)F)C2 (single isomer, unassigned; isomer a) [Example 288, hydrochloride]
50% pain threshold (antiallodynic effect): increased the 50% pain threshold

Reference: patent US12421225B2, “Heteroaromatic amide derivative and medicament containing the same” (KAKEN PHARMACEUTICAL CO., LTD., priority 2018, dated 2025)
